The source gives many values for each of these; only a part stands here.
Test system: CVD (CHD or stroke)
Assay: CARE: SNP by pravastatin treatment interaction, logistic regression (synergy index), CVD endpoint
Type: in vivo, human
From the text: CARE was a secondary prevention trial and WOSCOPS was a primary prevention trial.
The CHD endpoint was defined in the analyses herein of CARE as a composite endpoint of fatal CHD, definite non-fatal MI, or revascularization, and was defined in the analyses herein of WOSCOPS as a composite endpoint of death from CHD, nonfatal MI, or revascularization. In both the CARE and WOSCOPS analyses herein, the CVD endpoint was defined as a composite endpoint of CHD or stroke. […] Revascularization, which can include percutaneous transluminal coronary angioplasty (PTCA), stent placement, and coronary artery bypass graft (CABG), are medical interventions that indicate the presence of CHD.
Cohort and case-only study designs were used to identify SNPs associated with response to statin treatment.
For each SNP, a logistic regression model having treatment status as the dependent variable and SNP as the independent predictor variable was performed, with terms for age, sex and race included in the model as covariates. The anti-log of the regression coefficient corresponding to the SNP is an estimate of the synergy index (SI) (Davis et al., “Imputing gene-treatment interactions when the genotype distribution is unknown using case-only and putative placebo analyses-a new method for the Genetics of Hypertension Associated Treatment (GenHAT) study”, Statistics in Medicine 23: (2004), pages 2413-2427). The SI is a ratio of odds ratios: for example in the CARE and WOSCOPS studies, the SI represents the factor by which the odds-ratio of statin treatment, compared with placebo, among major homozygous individuals is multiplied by in order to obtain the odds-ratio of treatment vs. placebo among heterozygous individuals; and multiplied by a second time to obtain the odds-ratio of treatment vs. placebo in minor homozygous individuals. […] In a randomized clinical trial, genotype and treatment are independent by design.

CC[C@H](C)C(=O)O[C@H]1C[C@H](O)C=C2C=C[C@H](C)[C@H](CC[C@@H](O)C[C@@H](O)CC(=O)O)[C@H]21 [Pravastatin, pravastatin]
OR (SNP rs6495554, allele (A1) C, model REC, Imputed): 3.433
OR (SNP rs6495555, allele (A1) C, model REC, Imputed): 3.433
OR (SNP rs6544728, allele (A1) T, model DOM, Imputed): 1.526
OR (SNP rs6550705, allele (A1) C, model ADD, Imputed): 1.366
OR (SNP rs6593441, allele (A1) A, model DOM, Imputed): 1.577
OR (SNP rs6719700, allele (A1) A, model ADD, Imputed): 1.427
OR (SNP rs6719700, allele (A1) A, model DOM, Imputed): 1.536
OR (SNP rs6722640, allele (A1) T, model DOM, Imputed): 0.682
OR (SNP rs6743092, allele (A1) T, model ADD, Imputed): 1.36
OR (SNP rs6743092, allele (A1) T, model REC, Imputed): 1.57
OR (SNP rs6744759, allele (A1) G, model REC, Imputed): 1.692
OR (SNP rs6746170, allele (A1) A, model DOM, Imputed): 1.528
OR (SNP rs6759922, allele (A1) A, model DOM, Imputed): 0.6185
OR (SNP rs6791296, allele (A1) T, model ADD, Imputed): 0.6225
OR (SNP rs6792662, allele (A1) G, model DOM, Imputed): 1.844
OR (SNP rs6805139, allele (A1) G, model DOM, Imputed): 1.812
OR (SNP rs6806043, allele (A1) C, model ADD, Imputed): 1.366
OR (SNP rs6867153, allele (A1) A, model REC, Imputed): 0.528
OR (SNP rs6871041, allele (A1) G, model DOM, Imputed): 0.6
OR (SNP rs6888012, allele (A1) A, model REC, Imputed): 0.528
OR (SNP rs6908481, allele (A1) C, model REC, Imputed): 1.96
OR (SNP rs7032231, allele (A1) A, model ADD, Imputed): 1.212
OR (SNP rs7067638, allele (A1) T, model DOM, Imputed): 1.6
OR (SNP rs7077799, allele (A1) A, model DOM, Imputed): 1.625
OR (SNP rs7082163, allele (A1) A, model ADD, Imputed): 1.58
OR (SNP rs7082163, allele (A1) A, model DOM, Imputed): 1.684
OR (SNP rs7089661 allele C, model DOM, Imputed): 1.62
OR (SNP rs7101319 allele C, model ADD, Imputed): 1.567
OR (SNP rs7101319 allele C, model DOM, Imputed): 1.667
OR (SNP rs7134262 allele T, model REC, Imputed): 2.449
OR (SNP rs7138300 allele C, model ADD, Imputed): 0.7218
OR (SNP rs7138300 allele C, model DOM, Imputed): 0.6464
OR (SNP rs7163931 allele G, model REC, Imputed): 3.433
OR (SNP rs7171486 allele G, model DOM, Genotyped): 0.7681
OR (SNP rs7172611 allele G, model REC, Imputed): 3.433
OR (SNP rs7172689 allele T, model REC, Imputed): 3.433
OR (SNP rs7180245 allele A, model REC, Imputed): 3.433
OR (SNP rs7220603 allele A, model ADD, Genotyped): 0.7182
OR (SNP rs7282518 allele T, model ADD, Imputed): 1.688
OR (SNP rs7283476 allele T, model ADD, Imputed): 0.3701
OR (SNP rs7283476 allele T, model DOM, Imputed): 0.3345
OR (SNP rs7298255 allele A, model ADD, Imputed): 0.7363
OR (SNP rs7298255 allele A, model DOM, Imputed): 0.6348
OR (SNP rs7305832 allele C, model REC, Imputed): 2.46
OR (SNP rs7392620 allele C, model ADD, Imputed): 0.7778
OR (SNP rs7446891 allele G, model DOM, Imputed): 0.6617
OR (SNP rs7448641 allele C, model ADD, Imputed): 0.2198
OR (SNP rs7448641 allele C, model DOM, Imputed): 0.2258
OR (SNP rs7499402 allele A, model ADD, Genotyped): 1.746
OR (SNP rs7529851 allele A, model ADD, Imputed): 0.7957
OR (SNP rs7573951 allele G, model ADD, Imputed): 0.7174
OR (SNP rs7599198 allele T, model DOM, Imputed): 0.6201
OR (SNP rs7600050 allele C, model ADD, Imputed): 1.294
OR (SNP rs7607712 allele T, model ADD, Imputed): 1.401
OR (SNP rs7607712 allele T, model DOM, Imputed): 1.477
OR (SNP rs7621663 allele G, model ADD, Imputed): 1.413
OR (SNP rs7621663 allele G, model REC, Imputed): 2.257
OR (SNP rs7626584 allele G, model ADD, Imputed): 0.4778
OR (SNP rs7684899 allele C, model ADD, Imputed): 0.7138
OR (SNP rs7684899 allele C, model DOM, Imputed): 0.6634
OR (SNP rs7701604 allele G, model ADD, Imputed): 0.2198
OR (SNP rs7701604 allele G, model DOM, Imputed): 0.2258
OR (SNP rs7703676 allele C, model ADD, Imputed): 0.2198
OR (SNP rs7703676 allele C, model DOM, Imputed): 0.2258
OR (SNP rs7708491 allele C, model REC, Imputed): 0.5462
OR (SNP rs7711358 allele A, model DOM, Imputed): 0.6489
OR (SNP rs7719448 allele G, model REC, Imputed): 0.525
OR (SNP rs7724761 allele T, model REC, Imputed): 0.528
OR (SNP rs7742476 allele T, model DOM, Imputed): 1.752
OR (SNP rs7762993 allele A, model ADD, Imputed): 1.568
OR (SNP rs7762993 allele A, model DOM, Imputed): 1.808
OR (SNP rs7767265 allele G, model ADD, Imputed): 1.626
OR (SNP rs7767265 allele G, model DOM, Imputed): 1.904
OR (SNP rs7768128 allele G, model REC, Imputed): 0.3796
OR (SNP rs7771264 allele T, model DOM, Imputed): 0.6735
OR (SNP rs7773151 allele C, model DOM, Genotyped): 0.6804
OR (SNP rs7773210 allele A, model DOM, Genotyped): 0.6745
OR (SNP rs7808536 allele G, model DOM, Imputed): 1.395
OR (SNP rs7843510 allele G, model DOM, Genotyped): 1.623
OR (SNP rs7894867 allele T, model DOM, Imputed): 1.6
OR (SNP rs36071725, allele (A1) C, model ADD, Genotyped): 1.524
OR (SNP rs41395945, allele (A1) G, model ADD, Imputed): 1.706
OR (SNP rs41395945, allele (A1) G, model DOM, Imputed): 1.77
OR (rs198461 allele C, DOM model, Imputed): 0.625
OR (rs208757 allele G, ADD model, Imputed): 1.552
OR (rs208757 allele G, DOM model, Imputed): 1.649
OR (rs264126 allele C, DOM model, Imputed): 0.553
OR (rs264129 allele T, DOM model, Imputed): 0.561
OR (rs483159 allele A1=T, model DOM, Imputed, pravastatin vs placebo): 1.425
OR (rs489441 allele A1=G, model ADD, Imputed, pravastatin vs placebo): 1.446
OR (rs489441 allele A1=G, model DOM, Imputed, pravastatin vs placebo): 1.584
OR (rs1116596 allele T, DOM model, Imputed): 0.6531
OR (rs1149349 allele T, DOM model, Imputed): 1.696
OR (rs1149350 allele A, ADD model, Imputed): 1.592
OR (rs1149350 allele A, DOM model, Imputed): 1.701
OR (rs1782328 allele A, ADD model, Imputed): 0.613
OR (rs1796337 allele T, DOM model, Imputed): 0.597
OR (rs1798083 allele C, DOM model, Imputed): 0.601
OR (rs1798085 allele T, DOM model, Imputed): 0.578
OR (rs1798086 allele T, DOM model, Imputed): 0.553
OR (rs1798089 allele C, REC model, Imputed): 2.101
OR (rs1798090 allele C, REC model, Imputed): 2.054
OR (rs1832222 allele G, DOM model, Imputed): 1.786
OR (rs1838104 allele A, ADD model, Imputed): 0.727

Reference: patent publication US10563263B2, “Genetic polymorphisms associated with statin response and cardiovascular diseases, methods of detection and uses thereof” (CELERA CORPORATION, priority 2010, dated 2020)
